Source: PubChem BioAssay AID1347426 (Functional Genomics Laboratory (NCATS/FGL), 2020)
Screen size: about 31,000 sequences; about 1,400 (4.5%) were called active.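 The calls were made as follows: active = median seed-adjusted z-score above 1 or below -1; inactive = the rest.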 The list shows a part of the results.

assay: Novel Modifiers of Survival Motor Neuron (SMN) Protein: Gene Identification via Genome-wide siRNA Screen; settings: HEK293T SMN2-luciferase reporter, siRNA knockdown, 72 h; actives lie on both sides;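 also: luminescence tracks full-length SMN protein made from the SMN2 reporter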
Summary of the method: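 Luciferase signal, proportional to full-length SMN made from an SMN2 cDNA reporter in stable HEK293T cells, was read 72 h after siRNA reverse transfection. Values were expressed as MAD scores after non-targeting-control normalization and log10 conversion; seed analysis flagged off-targets.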

Row | Sequence | median seed-adjusted z-score
1 | GCACAGGAUGAGAUUUAUATT against DGKZ | inactive: 0
2 | CUCUUAUUGCUCAACGAUATT against KIF5C | inactive: 0.283
3 | GCAUGAACAUUACGGAUAUTT against CARS | inactive: 0
4 | GCAUUGAUCAGAGAAAGAUTT against YARS | inactive: 0.0197
5 | CGUUCGACAUCAUCACCGATT against PRKCZ | inactive: -0.175
6 | CAUCAUCUCCUGGACUUCATT against ELK1 | inactive: -0.52
7 | GAGAGAAGCUGGUAUCUCATT against MYO18B | inactive: -0.597
8 | GCAGCAAUAGAAUCACUAATT against FANCL | inactive: -0.0823
9 | CGCACGGACUGUACCAUUUTT against ETV2 | inactive: 0
10 | GGUUCUAUUUGGAAUUUAUTT against HNRNPA1 | inactive: 0.563
11 | GAGUCGGCAUGUAGACUUUTT against BTBD10 | inactive: 0.695
12 | GUAAGAAACUCCGAAAUUATT against ZMAT3 | inactive: 0.979
13 | CUAAUUUCGUUACUCGAAATT against GMDS | inactive: 0
14 | GCAAUGACUUGAUAGCUAATT against OSBP | inactive: 0.256
15 | CCAUUCGCAUGAUGGAGAATT against FEN1 | inactive: -0.316
16 | CCCUCUAUCUCUAAAGAAATT against CD8A | inactive: 0.777
17 | UCCUAUACGUGGUUCCUCUTT against OPN1SW | inactive: 0.32
18 | AGGCCGUGCUCUUCACCUATT against FAAH | inactive: 0.373
19 | UCUACAUCAUGAAGGCUGATT against TNFRSF8 | inactive: 0.739
20 | CGUGGACAUUUAUGGGUCATT against PADI3 | inactive: 0.147
21 | GGAUACAAAGCACAUAACATT against UBE2D4 | inactive: 0.232
22 | CAAUAAGCCCAACUACAAATT against PES1 | inactive: 0.44
23 | GGACUAUGUAUUUCAGGAATT against REN | inactive: -0.48
24 | CUAUUUUACCUUUACAAGATT against ALDH1A2 | inactive: 0.564
25 | GGACUUCUACCAGAAGUUUTT against GRK6 | inactive: -0.862
26 | CUCUAUCAGUUCCUACAUATT against IHPK3 | inactive: -0.173
27 | GCUUCGUGUUCGACUAUGATT against CSNK1G2 | inactive: 0.511

Row | Sequence | median seed-adjusted z-score
28 | UCCCAAUUCUUGAAGUAUUTT against CYP3A4 | inactive: 0.633
29 | CCACUAUCACAGAAUCCAATT against LSAMP | inactive: -0.12
30 | AGAGAAAUAAUCAAACUGATT against RASSF4 | inactive: 0.29
31 | CGAUGUACCAGGACUACGATT against SIPA1L3 | inactive: 0
32 | AACCUUUCCUCAUCACAAATT against TPP1 | inactive: -0.0334
33 | CACGUGCGCUGAUGAGAUUTT against CRB2 | inactive: 0
34 | GCUGGAUUACUAUCAACUATT against ENTPD1 | inactive: 0.567
35 | CAUAGGGACAUAUUCUUUATT against SLC39A1 | inactive: 0.658
36 | GGUCAUGCAGAUUAUGUUATT against TUFM | active: 1.07
37 | GAGUCUGAAGGAUACUAUUTT against PGAM1 | inactive: -0.234
38 | GAAUCUAUGGUGAAGUACATT against ATP8B4 | inactive: -0.00244
39 | CCACUUCCGGAUGACCAUUTT against GPT | inactive: -0.00224
40 | GGAGCCGGGUUACAUCAAATT against GRIN2B | inactive: 0.0402
41 | CAAUAUGCCUUUCUCUACATT against DNASE1L3 | inactive: 0.0678
42 | GCAGUGAUCAAAAACAGAATT against LPAR3 | inactive: -0.3
43 | CAUCAAAGAUUGCACUUCATT against TOMM34 | inactive: -0.503
44 | CGACCAUAGGGUAUGGGAATT against KCNK10 | inactive: 0.239
45 | AUAUAACACUUCUACUCUUTT against CMA1 | inactive: -0.0475
46 | AACUUUAGAGCACAAUUUUTT against ZNF33A | inactive: 0.0628
47 | CCAGCAAUGAGAAAAAUCUTT against HOXA2 | inactive: 0.335
48 | CAAGUGUUAUGACAUCGUUTT against PRKAG2 | inactive: -0.367
49 | CAGCUGUUCCCGUCUACAATT against ZDHHC8 | inactive: 0
50 | GAGAUGAGAAUGUUUUAAATT against IKZF3 | inactive: 0.0181
51 | GCCGCUUUGUAGUUCAGAATT against HSPH1 | inactive: -0.314
52 | GAGGAGCUGUCACUACGCATT against MYOZ3 | inactive: 0.16
53 | GAAGCUAUAUUUUCCGGUUTT against CBLB | inactive: 0
54 | CUCUAGGAAUGACGGAUUATT against PDGFRA | inactive: 0.0399

Laid out differently: results already given.

| Row | Sequence | median seed-adjusted z-score |
| --- | --- | --- |
| 39 | CCACUUCCGGAUGACCAUUTT against GPT | inactive: -0.00224 |
| 40 | GGAGCCGGGUUACAUCAAATT against GRIN2B | inactive: 0.0402 |
| 41 | CAAUAUGCCUUUCUCUACATT against DNASE1L3 | inactive: 0.0678 |
